# Screening data, single-dose tests

Chains of the proteins cited; added tags and fusions are not shown.
UniProt P9WNZ1, whole entry: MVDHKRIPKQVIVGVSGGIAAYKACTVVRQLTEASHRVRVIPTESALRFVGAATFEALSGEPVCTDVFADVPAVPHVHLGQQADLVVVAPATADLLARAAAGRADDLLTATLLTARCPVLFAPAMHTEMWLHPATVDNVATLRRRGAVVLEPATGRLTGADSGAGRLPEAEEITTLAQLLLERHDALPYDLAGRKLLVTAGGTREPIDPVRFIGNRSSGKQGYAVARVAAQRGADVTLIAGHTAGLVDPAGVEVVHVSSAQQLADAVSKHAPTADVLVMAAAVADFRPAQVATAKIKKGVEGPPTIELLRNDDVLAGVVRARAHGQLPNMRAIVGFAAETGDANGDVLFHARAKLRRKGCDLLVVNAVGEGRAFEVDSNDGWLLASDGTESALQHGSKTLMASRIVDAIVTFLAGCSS
UniProt P9WFT3, whole entry: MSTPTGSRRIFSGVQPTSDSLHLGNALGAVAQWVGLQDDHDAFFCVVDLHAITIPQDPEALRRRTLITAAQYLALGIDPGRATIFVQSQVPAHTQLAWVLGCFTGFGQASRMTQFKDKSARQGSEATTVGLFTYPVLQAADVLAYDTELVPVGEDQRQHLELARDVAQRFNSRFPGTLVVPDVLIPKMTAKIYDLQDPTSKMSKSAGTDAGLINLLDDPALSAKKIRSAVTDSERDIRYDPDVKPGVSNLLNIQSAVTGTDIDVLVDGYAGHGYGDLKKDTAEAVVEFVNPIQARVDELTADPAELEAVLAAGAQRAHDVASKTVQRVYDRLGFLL
UniProt I6X8D2, whole entry: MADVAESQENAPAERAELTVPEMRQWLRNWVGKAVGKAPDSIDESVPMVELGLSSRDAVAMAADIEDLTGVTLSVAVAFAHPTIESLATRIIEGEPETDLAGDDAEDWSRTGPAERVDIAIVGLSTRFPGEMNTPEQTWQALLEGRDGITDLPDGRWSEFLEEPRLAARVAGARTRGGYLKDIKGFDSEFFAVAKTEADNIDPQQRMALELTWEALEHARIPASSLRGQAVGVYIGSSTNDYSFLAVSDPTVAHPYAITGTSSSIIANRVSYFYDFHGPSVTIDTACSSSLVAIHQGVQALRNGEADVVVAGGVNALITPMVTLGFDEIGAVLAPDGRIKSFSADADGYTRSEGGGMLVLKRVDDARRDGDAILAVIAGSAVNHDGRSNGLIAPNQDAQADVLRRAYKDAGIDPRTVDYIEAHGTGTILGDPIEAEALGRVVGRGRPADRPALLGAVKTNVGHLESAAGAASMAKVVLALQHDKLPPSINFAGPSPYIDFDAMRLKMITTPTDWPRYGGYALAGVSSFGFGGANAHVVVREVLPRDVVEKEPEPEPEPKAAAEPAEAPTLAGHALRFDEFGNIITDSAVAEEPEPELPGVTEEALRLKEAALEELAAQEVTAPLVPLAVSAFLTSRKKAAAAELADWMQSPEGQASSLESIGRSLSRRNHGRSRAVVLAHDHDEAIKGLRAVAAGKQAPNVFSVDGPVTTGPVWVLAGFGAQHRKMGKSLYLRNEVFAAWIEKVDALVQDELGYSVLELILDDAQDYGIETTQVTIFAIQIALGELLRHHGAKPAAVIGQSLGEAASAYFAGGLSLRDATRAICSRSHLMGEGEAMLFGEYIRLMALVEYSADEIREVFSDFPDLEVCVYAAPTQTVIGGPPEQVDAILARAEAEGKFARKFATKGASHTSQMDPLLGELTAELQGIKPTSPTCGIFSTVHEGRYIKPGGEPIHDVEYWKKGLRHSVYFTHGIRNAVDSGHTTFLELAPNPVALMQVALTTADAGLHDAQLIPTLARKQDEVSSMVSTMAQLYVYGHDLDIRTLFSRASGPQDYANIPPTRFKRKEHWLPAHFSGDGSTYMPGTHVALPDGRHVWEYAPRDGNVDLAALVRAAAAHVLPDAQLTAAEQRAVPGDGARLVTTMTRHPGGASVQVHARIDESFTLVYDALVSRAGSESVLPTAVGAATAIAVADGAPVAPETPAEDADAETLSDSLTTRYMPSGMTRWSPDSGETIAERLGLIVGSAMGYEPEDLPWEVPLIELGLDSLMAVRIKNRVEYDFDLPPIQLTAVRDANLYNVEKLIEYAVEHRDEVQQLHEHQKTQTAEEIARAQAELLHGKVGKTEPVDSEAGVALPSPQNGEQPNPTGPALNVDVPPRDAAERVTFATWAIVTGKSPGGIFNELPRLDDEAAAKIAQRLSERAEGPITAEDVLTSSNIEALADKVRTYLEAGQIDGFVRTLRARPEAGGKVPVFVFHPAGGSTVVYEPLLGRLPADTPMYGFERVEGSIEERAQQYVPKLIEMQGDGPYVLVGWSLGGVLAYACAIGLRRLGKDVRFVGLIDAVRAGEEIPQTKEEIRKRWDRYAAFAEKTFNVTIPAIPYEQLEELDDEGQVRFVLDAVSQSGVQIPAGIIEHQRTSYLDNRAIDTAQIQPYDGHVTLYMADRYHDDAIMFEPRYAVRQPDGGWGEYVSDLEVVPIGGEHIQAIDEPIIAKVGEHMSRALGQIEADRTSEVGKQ

CoaBC: 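Enzyme assay of CoaBC with a phosphate dye (Biomol Green) read at 650 nm. Target: Coenzyme A biosynthesis protein CoaBC, Mycobacterium tuberculosis (UniProt P9WNZ1). Tested at 30 µM. Higher reads as stronger inhibition, judged from the few compounds that gave an IC50. Most strong results did not repeat in a second test. About 67,000 compounds were tested under these conditions; 0.06% (about 40) showed 50% or more at least once.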
MtTrpRS: 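Tryptophan-tRNA ligase, Mycobacterium tuberculosis (UniProt P9WFT3). Enzyme assay of tryptophanyl-tRNA synthetase; the read-out is not stated. Compounds at 10 µM. Higher most likely means stronger inhibition; the record gives no direction and few retests gave an IC50. About 65,000 compounds were tested under these conditions; 0.098% (about 64) showed 50% or more at least once.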
Pks13 thioesterase: 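Enzyme assay of the thioesterase domain of polyketide synthase 13; the read-out is not stated. Target: Polyketide synthase Pks13, Mycobacterium tuberculosis (UniProt I6X8D2). Tested at 30 µM. The record gives no direction; the compounds picked for IC50 retests had high values, so higher reads as stronger inhibition. About 67,000 compounds were tested under these conditions; 0.46% (about 300) showed 50% or more at least once.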

Values are the deposited “Percent Effect”, in %. The record does not define 0% and 100%; most values in the screen are far below 50% and negative numbers occur (in some assays of this library far below -100). Compounds were drawn at random from those tested, without regard to their results. Two or more numbers in one place are separate tests of the same structure; such repeats can differ widely. A dash means the value is not listed here; it may have been measured.

| # | structure | CoaBC | MtTrpRS | Pks13 thioesterase |
|---|---|---|---|---|
| 1 | `Cc1cc(C(=O)N2CCCC(n3cncn3)C2)nn1C` (stereo unspecified) | 10.56% | 0.6152% | 3.913% |
| 2 | `Cc1ccc(S(=O)(=O)NC(CO)CC(C)C)cc1N(C)C` (stereo unspecified) | -2.913% | -4.392% | 12.62% |
| 3 | `O=C(NC[C@H]1CC[C@H](c2ccnc3ncnn32)CC1)c1ccccn1` | 0.9501% | -4.552% | -0.131% |
| 4 | `NC(=O)CN(CC(N)=O)Cc1cccc(Oc2ccccc2)c1` | -4.194% | -0.6399% | 6.886% |
| 5 | `O=C(CNc1ccc(F)cc1OCC(F)(F)F)NCc1ccco1` | 5.134% | -3.054% | -16.51% |
| 6 | `Cc1nc2ccccc2nc1CN1CCCCC1Cn1cccn1` (stereo unspecified) | 2.376% | -1.871% | -14.56% |
| 7 | `Cc1nonc1CN(C)Cc1nc(-c2ccccc2Cl)oc1C` | 3.975% | 1.817% | 11.24% |
| 8 | `Cc1nnc(CSc2ccc(C(F)(F)F)cn2)o1` | 3.165% | -2.726% | -2.602% |
| 9 | `O=C(CCNc1ncccn1)N1CCCC(n2ccnc2)C1` (stereo unspecified) | 4.961% | -3.216% | -31.01% |
| 10 | `CCNC(=O)c1ccc(N2CCCC(c3nccn3C(C)C)C2)nc1` (stereo unspecified) | 2.232% | -0.3552% | -25.33% |
| 11 | `O=C1CC[C@H]2[C@H](CCN2c2ncc(F)cn2)N1c1ccccc1` | 2.228% | - | -3.134% |
| 12 | `O=S(=O)(Cc1ccccc1)CC(O)Cn1cccn1` (stereo unspecified) | 0.2049% | -1.986% | -16.56% |
| 13 | `CC(C)c1nc2cc(NC(=O)c3n[nH]c4c3CCC4)ccc2n1C` | 24.06% & 17.01% | 1.848% | -8.671% |
| 14 | `CC(C)OCCSc1nnnn1C1CCOCC1` | 3.075% | 0.4968% | -19.27% |
| 15 | `CCOCC1CN(S(=O)(=O)c2ccccc2)Cc2nccn2C1` (stereo unspecified) | 2.599% | - | -3.203% |
| 16 | `Cc1cn2nc(N(C)C3CCCN(c4cccnn4)C3)sc2n1` (stereo unspecified) | 6.164% | 0.4082% | -20.77% |
| 17 | `Cc1cc(C)n2nc(C(=O)N3CCCC4(CCOC4)C3)cc2n1` (stereo unspecified) | 0.6452% | -0.4571% | -31.96% |
| 18 | `Cc1n[nH]cc1C(=O)N1CCCC(n2nnc3cc(F)ccc32)C1` (stereo unspecified) | 10.1% | 2.996% | -7.274% |
| 19 | `Cc1ccc(N2CCCC3(COCCN(c4nccs4)C3)C2)nn1` (stereo unspecified) | 10.54% | 0.7401% | -10.87% |
| 20 | `Cc1nc(CN2C(=O)CC[C@@H]3[C@H]2CCN3C(=O)c2ccno2)cs1` | 2.03% | -3.539% | -12.7% |
| 21 | `N#Cc1nc(COc2ccc3c(c2)OCO3)oc1NC1CC1` | 2.273% | -6.092% | -5.117% |
| 22 | `CCCNC(=O)c1ccc2c(OC)n(C)nc2c1` | 9.937% | -7.371% | 19.2% |
| 23 | `COCc1nc(C(=O)N2CCCC(n3ccnc3C(C)C)C2)cs1` (stereo unspecified) | 5.018% | -7.252% | -9.358% |
| 24 | `CC(C)CN1CC(c2nc(C3CC3)n[nH]2)CC1=O` (stereo unspecified) | 3.856% | -4.446% | -29.12% |
| 25 | `CC(Cc1ccccc1Br)NC(=O)CCS(C)(=O)=O` (stereo unspecified) | -1.242% | -2.973% | -20.35% |
| 26 | `O=C(CCn1cc(Cl)cn1)Nc1ccc2c(c1)OCCO2` | -0.3468% | 0.5025% | 0.4949% |
| 27 | `COc1cccc(C(O)CN2CCN(C(=O)c3ccsc3)CC2)c1` (stereo unspecified) | 0.4% | -7.245% | -26.49% |
| 28 | `CN(C)C(=O)NCC1CC2(CO1)CN(c1nncs1)C2` (stereo unspecified) | 0.2475% | - | -6.942% |
| 29 | `CN1CC(=O)N(c2ccsc2)CC12CCN(S(C)(=O)=O)C2` (stereo unspecified) | -1.863% | -5.629% | -9.212% |
| 30 | `CC(C)n1cnnc1CN(C)C(=O)C1CCCN(C2CCN(C)CC2)C1` (stereo unspecified) | 5.455% | 6.461% | -12.08% |
| 31 | `c1ccc(OCc2nnc3n2CCN(Cc2ccco2)C3)nc1` | -6.762% | 1.098% | -16% |
| 32 | `O=C(c1cnc(C2CC2)nc1)N1CCC(N2CCC(O)CC2)CC1` | 3.909% | 5.533% | 11.45% |
| 33 | `Cc1cnc(C(=O)N2Cc3ncn(C)c3C(COCC(C)C)C2)cn1` (stereo unspecified) | 1.238% | - | -8.86% |
| 34 | `O=C(CN1C(=O)CCNC1=O)N1CCC(c2ccc(F)cc2)C1` (stereo unspecified) | 7.158% | -0.1874% | -21.33% |
| 35 | `CN1CCCC[C@@H]2[C@H]1[C@@H](c1ccccc1)CCN2C(=O)c1ccccn1` | 2.206% | - | 7.205% |
| 36 | `Cc1ccoc1C(=O)NC(CC(C)C)C(=O)N1CCC(CO)CC1` (stereo unspecified) | 1.195% | 8.883% | 46.3% |
| 37 | `Fc1cccc(-n2ccc(CN3CCCCC3Cn3cncn3)n2)c1` (stereo unspecified) | 5.656% | -3.541% | -20.01% |
| 38 | `CC1CCCCN1C(=O)c1n[nH]c(=O)c2ccccc12` (stereo unspecified) | -6.983% | 18.15% | -20.04% |
| 39 | `Cn1cc(-c2c(C#N)c(N)nc3c2CCc2[nH]ccc2-3)cn1` | 19.23% | 9.636% | 20.97% |
| 40 | `Cc1ccc(CCNC(=O)NCCCC(N)=O)c(C)c1` | 8.367% | -3.725% | -7.431% |
| 41 | `O=C(CC1CCCN1S(=O)(=O)N1CCCCC1)c1cccs1` (stereo unspecified) | -1.956% | 1.488% | -43.2% |
| 42 | `Cc1noc(C)c1C(=O)NCc1ccc(N2CCC(C)CC2)nc1` | 4.439% | -2.443% | -9.122% |
| 43 | `Cc1ccc(CNCc2nccn2C)c(OC(C)(C)C)c1` | 12.72% | -1.354% | -6.373% |
| 44 | `CS(=O)(=O)NC1CCCN(C(=O)Nc2ccccc2Cn2cccn2)C1` (stereo unspecified) | -6.25% | -2.167% | - |
| 45 | `Cc1csc(N2CCN(Cc3nnsc3Cl)CC2C)n1` (stereo unspecified) | 2.02% | 0.07003% | -33.93% |
| 46 | `Cn1ncc(N2CCN(Cc3ccc(S(C)(=O)=O)cc3)CC2)cc1=O` | 1.485% | -2.006% | -27.14% |
| 47 | `COc1ccc(CN2CC[C@H](NC(C)=O)[C@@H](O)CC2)c(F)c1` | 3.874% | - | 7.679% |
| 48 | `CCc1nc(CN2CCOC(CNc3cccnn3)C2)cs1` (stereo unspecified) | -4.348% | 19.17% | -14.63% |
| 49 | `CN(Cc1ccc(F)cc1)CC1(O)CCN(C(=O)c2ccccn2)C1` (stereo unspecified) | 1.453% | - | -1.301% |
| 50 | `Cc1nc(CN2CCCC(NCc3ccc4ccccc4c3)C2)no1` (stereo unspecified) | 7.097% | 5.842% | -20.16% |
| 51 | `CC1CN(c2ccccc2Cl)C(=O)CN1C(=O)c1c[nH]c(=O)c(Cl)c1` (stereo unspecified) | 2.138% | 4.49% | -13.88% |
| 52 | `COCCC(=O)N1CCC(Nc2ncc(Cl)cn2)CC1` | 8.636% | -2.974% | -16.25% |
| 53 | `OCCO[C@H]1C[C@@H](O)C12CCN(Cc1nc(C(F)(F)F)no1)CC2` | 3.21% | -1.253% | -8.726% |
| 54 | `Cc1cc(N2CCCC(c3nncn3C3CC3)C2)ncn1` (stereo unspecified) | 3.883% | -3.922% | -29.3% |
| 55 | `CC(C)c1noc(CN2CCN(C(=O)c3cc(Cl)ccc3F)CC2)n1` | 36.84% & 5.67% | -6.772% | -2.231% |
| 56 | `Cc1nonc1CN(C)Cc1c[nH]nc1-c1ccc(F)cc1F` | 4.467% | 1.459% | -6.576% |

6 of the entries, repeated:

| structure | CoaBC | MtTrpRS | Pks13 thioesterase |
|---|---|---|---|
| `O=C(CC1CCCN1S(=O)(=O)N1CCCCC1)c1cccs1` (stereo unspecified) | -1.956% | 1.488% | -43.2% |
| `Cn1cc(-c2c(C#N)c(N)nc3c2CCc2[nH]ccc2-3)cn1` | 19.23% | 9.636% | 20.97% |
| `CN(C)C(=O)NCC1CC2(CO1)CN(c1nncs1)C2` (stereo unspecified) | 0.2475% | - | -6.942% |
| `O=C1CC[C@H]2[C@H](CCN2c2ncc(F)cn2)N1c1ccccc1` | 2.228% | - | -3.134% |
| `CCOCC1CN(S(=O)(=O)c2ccccc2)Cc2nccn2C1` (stereo unspecified) | 2.599% | - | -3.203% |
| `Cc1nnc(CSc2ccc(C(F)(F)F)cn2)o1` | 3.165% | -2.726% | -2.602% |

Measurements from “University of Dundee, Small-Polar-MMV Screening Library” (2021), ChEMBL document CHEMBL3988442.